The supplement of paper PMC10849652
The other results are listed elsewhere or left out.

By UniProt entry, the sequences of proteins in these tests, tags left out. Where a name states a change or a piece, a line headed by the entry shows the natural chain unless it says otherwise.
UniProt Q13015: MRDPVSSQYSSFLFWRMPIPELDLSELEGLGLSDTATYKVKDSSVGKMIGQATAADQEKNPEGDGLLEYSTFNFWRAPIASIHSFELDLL
UniProt Q8IVH4: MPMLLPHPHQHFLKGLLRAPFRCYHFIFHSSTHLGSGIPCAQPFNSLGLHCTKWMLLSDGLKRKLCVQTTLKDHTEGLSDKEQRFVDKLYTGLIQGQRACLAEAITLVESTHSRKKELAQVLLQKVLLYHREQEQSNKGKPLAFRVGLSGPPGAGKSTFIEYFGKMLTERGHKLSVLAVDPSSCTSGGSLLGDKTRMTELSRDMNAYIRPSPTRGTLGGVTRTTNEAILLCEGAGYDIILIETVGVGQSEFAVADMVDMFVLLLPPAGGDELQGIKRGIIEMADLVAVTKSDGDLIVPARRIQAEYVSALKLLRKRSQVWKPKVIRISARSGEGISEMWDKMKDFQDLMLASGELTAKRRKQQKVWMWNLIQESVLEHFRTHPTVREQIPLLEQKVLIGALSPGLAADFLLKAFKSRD
UniProt Q4G0A6: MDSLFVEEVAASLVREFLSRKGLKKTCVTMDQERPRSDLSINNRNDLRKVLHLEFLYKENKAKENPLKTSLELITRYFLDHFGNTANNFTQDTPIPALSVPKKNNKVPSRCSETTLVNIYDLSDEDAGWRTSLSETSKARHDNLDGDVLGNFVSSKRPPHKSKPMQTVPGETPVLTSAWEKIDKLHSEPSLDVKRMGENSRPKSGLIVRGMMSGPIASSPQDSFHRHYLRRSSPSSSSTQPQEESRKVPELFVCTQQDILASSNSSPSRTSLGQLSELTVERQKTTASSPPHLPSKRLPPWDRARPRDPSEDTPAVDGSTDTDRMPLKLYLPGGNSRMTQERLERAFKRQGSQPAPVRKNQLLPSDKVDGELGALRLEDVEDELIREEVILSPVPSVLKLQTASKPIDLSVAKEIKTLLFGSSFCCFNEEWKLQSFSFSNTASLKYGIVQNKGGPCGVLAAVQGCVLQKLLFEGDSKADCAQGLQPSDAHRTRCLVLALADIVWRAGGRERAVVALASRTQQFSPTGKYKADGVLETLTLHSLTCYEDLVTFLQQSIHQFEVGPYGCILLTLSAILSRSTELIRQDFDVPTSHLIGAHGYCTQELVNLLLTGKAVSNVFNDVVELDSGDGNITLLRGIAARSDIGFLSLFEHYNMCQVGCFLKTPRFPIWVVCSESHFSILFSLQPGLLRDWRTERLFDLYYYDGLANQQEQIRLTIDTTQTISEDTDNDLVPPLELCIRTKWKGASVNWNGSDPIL
UniProt Q8N4V1: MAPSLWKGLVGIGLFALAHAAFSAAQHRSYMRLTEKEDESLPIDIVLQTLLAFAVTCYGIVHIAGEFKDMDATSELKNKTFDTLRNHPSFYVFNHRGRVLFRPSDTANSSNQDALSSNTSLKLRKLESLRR
UniProt Q9Y6X9: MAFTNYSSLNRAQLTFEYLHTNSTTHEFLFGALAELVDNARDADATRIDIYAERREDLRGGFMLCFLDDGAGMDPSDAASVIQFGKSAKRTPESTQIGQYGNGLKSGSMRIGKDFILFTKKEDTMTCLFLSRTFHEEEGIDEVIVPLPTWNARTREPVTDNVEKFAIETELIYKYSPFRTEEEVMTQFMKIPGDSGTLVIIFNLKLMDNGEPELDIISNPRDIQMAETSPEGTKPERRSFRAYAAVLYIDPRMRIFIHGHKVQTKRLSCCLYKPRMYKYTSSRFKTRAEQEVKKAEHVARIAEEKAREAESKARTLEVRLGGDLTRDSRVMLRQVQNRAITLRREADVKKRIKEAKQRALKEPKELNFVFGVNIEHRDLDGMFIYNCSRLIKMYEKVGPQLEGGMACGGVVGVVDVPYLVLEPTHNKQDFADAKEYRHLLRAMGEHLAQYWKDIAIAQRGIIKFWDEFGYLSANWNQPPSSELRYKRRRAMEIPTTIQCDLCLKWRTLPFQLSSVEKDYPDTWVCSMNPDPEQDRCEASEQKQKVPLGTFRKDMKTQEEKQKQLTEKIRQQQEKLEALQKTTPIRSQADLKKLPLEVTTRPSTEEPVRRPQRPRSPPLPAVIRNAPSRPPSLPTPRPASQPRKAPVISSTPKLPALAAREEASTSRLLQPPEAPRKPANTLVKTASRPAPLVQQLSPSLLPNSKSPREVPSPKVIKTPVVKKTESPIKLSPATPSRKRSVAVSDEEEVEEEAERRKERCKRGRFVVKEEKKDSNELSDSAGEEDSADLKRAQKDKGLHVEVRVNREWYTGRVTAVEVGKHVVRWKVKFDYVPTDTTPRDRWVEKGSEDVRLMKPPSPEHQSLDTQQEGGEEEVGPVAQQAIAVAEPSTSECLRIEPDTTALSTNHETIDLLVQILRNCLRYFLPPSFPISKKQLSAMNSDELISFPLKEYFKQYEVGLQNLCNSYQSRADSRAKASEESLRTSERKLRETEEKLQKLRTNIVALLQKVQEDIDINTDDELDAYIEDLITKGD
UniProt O95297: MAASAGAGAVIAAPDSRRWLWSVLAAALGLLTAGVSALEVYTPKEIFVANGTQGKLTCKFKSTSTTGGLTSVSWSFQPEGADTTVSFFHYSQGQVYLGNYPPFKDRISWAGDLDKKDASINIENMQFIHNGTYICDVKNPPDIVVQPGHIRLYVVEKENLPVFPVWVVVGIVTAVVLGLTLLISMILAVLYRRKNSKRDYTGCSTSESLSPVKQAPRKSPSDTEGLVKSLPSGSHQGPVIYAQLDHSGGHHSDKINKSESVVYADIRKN
UniProt Q5TGZ0: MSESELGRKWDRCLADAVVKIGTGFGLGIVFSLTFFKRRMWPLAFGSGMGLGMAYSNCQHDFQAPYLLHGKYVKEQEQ
UniProt Q13064: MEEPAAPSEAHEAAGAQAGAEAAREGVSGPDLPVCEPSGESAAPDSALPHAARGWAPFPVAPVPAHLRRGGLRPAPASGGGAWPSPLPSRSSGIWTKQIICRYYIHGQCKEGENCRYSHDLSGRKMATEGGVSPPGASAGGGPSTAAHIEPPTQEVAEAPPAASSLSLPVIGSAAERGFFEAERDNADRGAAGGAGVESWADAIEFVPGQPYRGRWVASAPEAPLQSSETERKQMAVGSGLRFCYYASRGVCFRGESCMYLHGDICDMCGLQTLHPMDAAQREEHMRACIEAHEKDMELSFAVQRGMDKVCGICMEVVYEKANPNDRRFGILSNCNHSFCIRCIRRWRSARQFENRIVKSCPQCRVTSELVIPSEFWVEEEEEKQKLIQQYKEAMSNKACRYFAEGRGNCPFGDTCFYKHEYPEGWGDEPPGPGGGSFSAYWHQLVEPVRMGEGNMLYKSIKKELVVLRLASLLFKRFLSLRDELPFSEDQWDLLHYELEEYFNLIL
UniProt Q95460, whole entry, looked up: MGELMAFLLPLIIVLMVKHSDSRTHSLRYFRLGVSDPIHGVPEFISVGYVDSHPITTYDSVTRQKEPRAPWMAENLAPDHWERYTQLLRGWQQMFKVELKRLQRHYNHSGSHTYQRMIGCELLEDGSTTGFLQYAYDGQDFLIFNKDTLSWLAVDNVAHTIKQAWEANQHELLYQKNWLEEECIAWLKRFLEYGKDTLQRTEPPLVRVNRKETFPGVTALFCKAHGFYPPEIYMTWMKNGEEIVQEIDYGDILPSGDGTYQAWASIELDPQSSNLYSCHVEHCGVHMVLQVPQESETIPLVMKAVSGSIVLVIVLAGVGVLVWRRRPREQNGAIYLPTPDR
UniProt P55197: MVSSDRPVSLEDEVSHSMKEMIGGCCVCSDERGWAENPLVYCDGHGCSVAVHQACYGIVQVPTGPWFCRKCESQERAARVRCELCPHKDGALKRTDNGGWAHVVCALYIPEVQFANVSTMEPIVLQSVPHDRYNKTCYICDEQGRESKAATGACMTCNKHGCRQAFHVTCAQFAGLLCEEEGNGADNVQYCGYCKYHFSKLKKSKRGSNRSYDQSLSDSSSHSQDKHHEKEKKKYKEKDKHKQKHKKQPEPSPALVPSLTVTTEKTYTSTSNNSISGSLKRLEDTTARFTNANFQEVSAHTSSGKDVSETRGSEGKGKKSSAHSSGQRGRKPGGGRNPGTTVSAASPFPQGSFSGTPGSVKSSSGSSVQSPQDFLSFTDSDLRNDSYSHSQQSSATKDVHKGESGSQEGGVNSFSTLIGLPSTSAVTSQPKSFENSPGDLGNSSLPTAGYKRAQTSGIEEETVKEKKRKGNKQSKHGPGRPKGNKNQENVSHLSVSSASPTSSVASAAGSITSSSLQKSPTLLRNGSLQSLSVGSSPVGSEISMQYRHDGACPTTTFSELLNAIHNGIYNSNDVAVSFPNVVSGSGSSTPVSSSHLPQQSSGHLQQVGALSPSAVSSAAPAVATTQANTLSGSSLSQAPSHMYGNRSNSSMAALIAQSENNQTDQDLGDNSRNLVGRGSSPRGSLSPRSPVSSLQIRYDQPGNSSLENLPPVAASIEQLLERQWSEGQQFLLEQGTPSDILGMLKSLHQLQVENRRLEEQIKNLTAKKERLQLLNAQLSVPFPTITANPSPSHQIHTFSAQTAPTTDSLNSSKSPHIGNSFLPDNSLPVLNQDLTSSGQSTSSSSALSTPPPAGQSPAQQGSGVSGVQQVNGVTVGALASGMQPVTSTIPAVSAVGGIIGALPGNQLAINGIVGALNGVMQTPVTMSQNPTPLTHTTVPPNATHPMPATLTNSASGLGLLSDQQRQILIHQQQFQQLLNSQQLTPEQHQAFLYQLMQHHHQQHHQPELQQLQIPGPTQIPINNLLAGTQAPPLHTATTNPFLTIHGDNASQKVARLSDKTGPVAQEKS
UniProt Q70IA6: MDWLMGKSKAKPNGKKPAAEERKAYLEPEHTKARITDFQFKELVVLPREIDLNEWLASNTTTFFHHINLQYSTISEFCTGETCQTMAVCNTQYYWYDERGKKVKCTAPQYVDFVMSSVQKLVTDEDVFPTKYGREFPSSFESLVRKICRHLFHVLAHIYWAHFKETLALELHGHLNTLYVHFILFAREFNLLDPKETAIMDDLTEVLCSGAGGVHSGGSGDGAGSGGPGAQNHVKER
UniProt O75030: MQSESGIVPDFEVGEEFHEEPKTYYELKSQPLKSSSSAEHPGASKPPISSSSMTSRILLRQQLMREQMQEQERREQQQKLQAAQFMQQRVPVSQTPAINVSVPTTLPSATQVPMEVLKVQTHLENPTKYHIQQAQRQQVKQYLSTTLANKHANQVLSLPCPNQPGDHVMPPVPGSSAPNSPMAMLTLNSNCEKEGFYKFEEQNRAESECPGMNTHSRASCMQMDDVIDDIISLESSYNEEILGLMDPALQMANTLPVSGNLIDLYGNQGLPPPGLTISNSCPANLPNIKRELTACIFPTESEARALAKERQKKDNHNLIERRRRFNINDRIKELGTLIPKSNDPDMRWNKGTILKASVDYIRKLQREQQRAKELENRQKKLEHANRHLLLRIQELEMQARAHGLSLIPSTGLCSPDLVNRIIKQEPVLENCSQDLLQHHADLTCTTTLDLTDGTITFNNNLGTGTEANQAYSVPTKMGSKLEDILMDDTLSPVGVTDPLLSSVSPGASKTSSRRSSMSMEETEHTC
UniProt Q29983, whole entry, looked up: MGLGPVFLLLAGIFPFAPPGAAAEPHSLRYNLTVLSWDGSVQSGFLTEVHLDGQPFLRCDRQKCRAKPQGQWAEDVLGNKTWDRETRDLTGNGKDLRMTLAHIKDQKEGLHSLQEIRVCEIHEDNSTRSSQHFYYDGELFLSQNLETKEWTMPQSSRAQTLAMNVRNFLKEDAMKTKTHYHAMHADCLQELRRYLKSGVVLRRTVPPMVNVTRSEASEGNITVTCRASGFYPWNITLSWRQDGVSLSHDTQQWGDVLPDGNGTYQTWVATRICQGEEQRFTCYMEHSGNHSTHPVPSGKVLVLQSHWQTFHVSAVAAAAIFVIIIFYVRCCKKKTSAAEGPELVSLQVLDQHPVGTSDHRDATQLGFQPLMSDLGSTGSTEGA
UniProt Q86TA1: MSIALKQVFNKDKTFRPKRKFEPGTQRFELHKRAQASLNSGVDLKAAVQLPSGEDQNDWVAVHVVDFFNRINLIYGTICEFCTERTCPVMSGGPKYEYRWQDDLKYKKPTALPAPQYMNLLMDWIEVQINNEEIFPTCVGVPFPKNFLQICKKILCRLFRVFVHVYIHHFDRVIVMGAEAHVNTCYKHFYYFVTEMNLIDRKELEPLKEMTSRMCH
UniProt P39210: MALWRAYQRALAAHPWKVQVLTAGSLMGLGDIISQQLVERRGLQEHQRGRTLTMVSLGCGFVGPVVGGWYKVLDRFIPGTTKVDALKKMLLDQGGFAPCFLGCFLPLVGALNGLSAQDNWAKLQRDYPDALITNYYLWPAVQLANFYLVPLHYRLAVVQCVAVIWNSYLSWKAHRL
UniProt Q9H3L0: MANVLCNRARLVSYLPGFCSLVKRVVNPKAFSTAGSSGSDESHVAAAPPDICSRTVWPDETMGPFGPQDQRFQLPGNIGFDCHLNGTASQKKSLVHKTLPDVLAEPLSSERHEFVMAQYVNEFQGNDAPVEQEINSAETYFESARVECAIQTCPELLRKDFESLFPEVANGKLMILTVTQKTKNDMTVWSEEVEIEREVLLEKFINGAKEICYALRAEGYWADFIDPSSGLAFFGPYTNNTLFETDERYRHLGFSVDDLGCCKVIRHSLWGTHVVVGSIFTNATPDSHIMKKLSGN

What was measured:
Assay in all cases: log2 fold change, soluble protein after heating vs DMSO (PISA); higher = thermal stabilisation; K562 cells, 10 uM, 30 min; active = over 0.2 and 3.5 SD of the protein, either way, in both replicates (recomputed)
zotarolimus = compound: CO[C@H]1C[C@@H]2CC[C@@H](C)[C@@](O)(O2)C(=O)C(=O)N2CCCC[C@H]2C(=O)O[C@H]([C@H](C)C[C@@H]2CC[C@H](n3cnnn3)[C@H](OC)C2)CC(=O)[C@H](C)/C=C(\C)[C@@H](O)[C@@H](OC)C(=O)[C@H](C)C[C@H](C)/C=C/C=C/C=C/1C [zotarolimus]
Method in brief: (§1)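 K562 cells at 2×10^6 cells/mL were exposed to 10 μM compound for 30 min, then aliquots were heated for 3 min across 48°C-58°C, pooled, and extracted in PBS containing 0.5% NP-40 at 4°C. The supernatant after 21,000xg for 90 min was taken as soluble protein and measured by TMTpro 16plex LC-MS/MS with channel sums equalised. Thermal stability is reported relative to control samples, with values from duplicates. Fold changes are given on a log2 scale.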

idasanutlin = compound: COc1cc(C(=O)O)ccc1NC(=O)[C@@H]1N[C@@H](CC(C)(C)C)[C@](C#N)(c2ccc(Cl)cc2F)[C@H]1c1cccc(Cl)c1F [idasanutlin]
Method in brief: as §1

[1] = compound: COc1cc2nc(-c3cc(F)ccc3O)nc(N[C@@H]3CNC[C@H]3C(C)(C)O)c2cc1OC
Method in brief: as §1

gefitinib = compound: COc1cc2ncnc(Nc3ccc(F)c(Cl)c3)c2cc1OCCCN1CCOCC1 [gefitinib]
Method in brief: as §1

lapatinib = compound: CS(=O)(=O)CCNCc1ccc(-c2ccc3ncnc(Nc4ccc(OCc5cccc(F)c5)c(Cl)c4)c3c2)o1 [lapatinib]
Method in brief: as §1

[2] = compound: COC1=CC=C(C=C1)CN2C=CC3=C2C=C(C=C3)C(=O)NO
Method in brief: as §1

filanesib = compound: CON(C)C(=O)N1N=C(c2cc(F)ccc2F)S[C@@]1(CCCN)c1ccccc1 [filanesib]
Method in brief: as §1

alisertib = compound: COc1cc(Nc2ncc3c(n2)-c2ccc(Cl)cc2C(c2c(F)cccc2OC)=NC3)ccc1C(=O)O [alisertib]
Method in brief: as §1

[3] = compound: COc1cccc2cc(-c3nc([C@H]4CC[C@H](C(=O)O)CC4)n4ncnc(N)c34)[nH]c12
Method in brief: as §1

pictilisib = compound: CS(=O)(=O)N1CCN(Cc2cc3nc(-c4cccc5[nH]ncc45)nc(N4CCOCC4)c3s2)CC1 [pictilisib]
Method in brief: as §1

Target	log2 fold change (zotarolimus)	log2 fold change (idasanutlin)	log2 fold change [1]	log2 fold change (gefitinib)	log2 fold change (lapatinib)	log2 fold change [2]	log2 fold change (filanesib)	log2 fold change (alisertib)	log2 fold change [3]	log2 fold change (pictilisib)
MRM2 (UniProt Q9UI43)	inactive: 0.11	active: 0.518	inactive: 0.078	inactive: 0.066	inactive: 0.108					
MLLT11 (UniProt Q13015)	inactive: -0.064		inactive: -0.069	inactive: 0.046	inactive: -0.164	inactive: 0.187	inactive: 0.071	inactive: -0.021	inactive: -0.049	inactive: -0.057
MKKS (UniProt Q9HB66)	inactive: -0.039	inactive: 0.028		inactive: 0.052			inactive: -0.02	inactive: -0.079	inactive: 0.043	inactive: 0.042
MMAA (UniProt Q8IVH4)	inactive: 0.073	inactive: -0.071	inactive: -0.038		inactive: -0.244		inactive: 0			
MMRN1 (UniProt Q13201)							inactive: -0.149			
MINDY4 (UniProt Q4G0A6)							inactive: -0.004			
MICB, A0A140T979	inactive: -0.029	inactive: 0.025	inactive: 0.044	inactive: 0.073	inactive: -0.039	inactive: 0.005		inactive: -0.089	inactive: 0.007	inactive: 0.088
MRPL18 (UniProt Q9H0U6)	inactive: -0.176		inactive: 0.036	inactive: 0	inactive: 0.141	inactive: 0	inactive: 0.153	inactive: -0.192	inactive: -0.211	inactive: -0.151
MON1A (UniProt Q86VX9)			inactive: -0.042	inactive: 0.427	inactive: -0.003	inactive: -0.118	inactive: -0.023	inactive: 0.291	inactive: 0.049	inactive: -0.011
MMGT1 (UniProt Q8N4V1)	inactive: 0.044	inactive: -0.032	inactive: 0.052	inactive: -0.118	inactive: 0.033	inactive: 0.039	inactive: -0.031			
MRPL57 (UniProt Q9BQC6)		inactive: -0.031	inactive: -0.063	inactive: -0.052	inactive: 0.229		inactive: 0.214	inactive: -0.026	inactive: -0.055	inactive: -0.073
MORC2 (UniProt Q9Y6X9)		inactive: -0.018	inactive: 0.134		inactive: -0.118	inactive: 0.195		inactive: -0.012	inactive: -0.013	
MPZL1 isoform 3 (UniProt O95297)	inactive: 0.07	inactive: -0.104								
MID1IP1 (UniProt Q9NPA3)			inactive: 0.071	inactive: 0.146	inactive: 0.051	inactive: -0.269	inactive: 0.273	inactive: 0.017	inactive: -0.113	inactive: 0.207
MLKL (UniProt Q8NB16)	inactive: -0.225		inactive: -0.202		inactive: 0.025	inactive: -0.03	inactive: -0.074			inactive: -0.069
MICOS10 (UniProt Q5TGZ0)		inactive: -0.04	inactive: -0.106	inactive: 0.02	inactive: -0.028	inactive: -0.098	inactive: -0.059	inactive: 0.073	inactive: -0.054	inactive: 0.024
MKRN3 (UniProt Q13064)		inactive: -0.167	inactive: 0.094	inactive: 0.009	inactive: -0.074	inactive: -0.147	inactive: -0.046			
MPC1 (UniProt Q9Y5U8)	inactive: 0.114	inactive: -0.035	inactive: -0.116	inactive: -0.061	inactive: 0.113		inactive: -0.08	inactive: -0.23	inactive: -0.023	

Target	log2 fold change (zotarolimus)	log2 fold change (idasanutlin)	log2 fold change [1]	log2 fold change (gefitinib)	log2 fold change (lapatinib)	log2 fold change [2]	log2 fold change (filanesib)	log2 fold change (alisertib)	log2 fold change [3]	log2 fold change (pictilisib)
MR1 (UniProt Q95460)						inactive: -0.065		inactive: -0.049	inactive: -0.323	
MINDY2 (UniProt Q8NBR6)	inactive: 0.21							inactive: -0.566	inactive: 0.047	
MICAL2 (UniProt O94851)	inactive: -0.097	inactive: 0.065				inactive: 0.189		inactive: -0.012	inactive: 0.201	inactive: 0.034
MRNIP (UniProt Q6NTE8)			inactive: 0.083	inactive: -0.126	inactive: -0.046	inactive: -0.14	inactive: 0.033	inactive: 0.215	inactive: 0.117	inactive: 0.099
MLLT10 (UniProt P55197)			inactive: 0.162		inactive: 0.021			inactive: -0.011	inactive: 0.327	inactive: -0.155
MMP15 (UniProt P51511)										inactive: -0.104
MIGA2 (UniProt Q7L4E1)	inactive: 0.193									
MOB2 isoform 3 (UniProt Q70IA6)	inactive: 0.205		inactive: -0.184	inactive: 0.051	inactive: 0.025			inactive: -0.066	inactive: 0.02	inactive: 0.06
MKRN1 (UniProt Q9UHC7)	inactive: -0.015		inactive: -0.059	inactive: -0.269	inactive: 0.052	inactive: -0.074		inactive: -0.145	inactive: -0.408	inactive: -0.086
MOSPD1 isoform 3 (UniProt Q9UJG1)				inactive: -0.064				inactive: -0.134	inactive: -0.246	inactive: -0.116
MITF (UniProt O75030)		inactive: -0.042		inactive: -0.13		inactive: 0.122	inactive: 0.106	inactive: 0.008	inactive: 0	inactive: -0.397
MICA (UniProt Q29983)		inactive: 0.069	inactive: 0.047		inactive: 0.001		inactive: 0.152			inactive: -0.06
MOB3B (UniProt Q86TA1)	inactive: -0.087	inactive: -0.24	inactive: 0.04	inactive: 0.384	inactive: -0.033	inactive: 0.355		inactive: -0.001	inactive: -0.011	inactive: 0.067
MPV17 (UniProt P39210)	inactive: 0.082	inactive: -0.103	inactive: 0.003	inactive: 0.085	inactive: -0.142		inactive: -0.038	inactive: -0.091	inactive: 0.03	inactive: 0.042
MIER2 (UniProt Q8N344)	inactive: -0.072	inactive: 0.177								
MRAS (UniProt O14807)				inactive: -0.002		inactive: -0.034		inactive: 0.172	inactive: 0.121	inactive: 0.204
MLH1 (UniProt P40692)	inactive: 0.024	inactive: 0.03	inactive: -0.135		inactive: 0.091			inactive: -0.171	inactive: -0.1	inactive: 0.083
MMADHC (UniProt Q9H3L0)	inactive: 0.102	inactive: -0.135	inactive: 0.056	inactive: 0.305	inactive: 0.176	inactive: -0.031		inactive: 0.006	inactive: 0.013	inactive: -0.114

2 records picked at random from those above, as already listed:
Target	log2 fold change (zotarolimus)	log2 fold change (idasanutlin)	log2 fold change [1]	log2 fold change (gefitinib)	log2 fold change (lapatinib)	log2 fold change [2]	log2 fold change (filanesib)	log2 fold change (alisertib)	log2 fold change [3]	log2 fold change (pictilisib)
MICA (UniProt Q29983)		inactive: 0.069	inactive: 0.047		inactive: 0.001		inactive: 0.152			inactive: -0.06
MOB3B (UniProt Q86TA1)	inactive: -0.087	inactive: -0.24	inactive: 0.04	inactive: 0.384	inactive: -0.033	inactive: 0.355		inactive: -0.001	inactive: -0.011	inactive: 0.067
